Most values lie at the floor of the assay. Slopes are relative: functional sequences can read slightly below zero.
The substances below were run on Saccharomyces cerevisiae PS128 hsf1 delta, HSF1(1-493) fusion (assay: growth estimate (transactivation domain function in HSF1 fusion, heat-shock survival) (a.u. (slope of normalised read count over time)); higher = stronger growth at 37°C, i.e. more transactivation activity). Conditions: library: random library.
Experimental: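 Random 60-nt DNA library encoding peptides of up to 20 aa, fused to the C-terminus of yeast HSF1 residues 1-493 (C-terminal TAD deleted) and expressed from the native HSF1 promoter on a CEN plasmid in hsf1-deleted S. cerevisiae PS128. Cells were selected at 37°C on -trp 5-FOA plates for 0, 2, 4, 6 and 8 days and amplicons were sequenced. Growth estimate is the slope of a robust linear fit of total-sum-normalised read counts (normalised to the first time point) over time, using at least 2 replicates. Sequences are classed functional (TAD activity) above a threshold of -0.13, set from stop-codon control sequences.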

| Substance | growth estimate |
| --- | --- |
| CYSCHLRALVDNMFRAVSMG | < -0.25 |
| CYSK | < -0.25 |
| CYSLGLGGGRQVRLLCHRGA | < -0.25 |
| CYVSIGPSISGAQDGVRLHC | < -0.25 |
| DAAA | < -0.25 |
| DACDGQNPDGSSRSVRLVLS | < -0.25 |
| DAD | < -0.25 |
| DAEASKCCPYLEVLQSDVTN | < -0.25 |
| DAFVQHI | < -0.25 |
| DAFVT | < -0.25 |
| DAG | -0.245 |
| DAGRGWPWQWKALAGLGRNG | < -0.25 |
| DAGSQSDSPVPIGGYRPRDT | < -0.25 |
| DAGTRTSPT | < -0.25 |
| DAHRVEP | < -0.25 |
| DAIVA | < -0.25 |
| DANEEYMFESKWLSLTPETC | < -0.25 |
| DANLNEEATTWLVACVCAYG | < -0.25 |
| DAPGCGTARRPATRPSHAIT | < -0.25 |
| DAQCALLCWYRNRFRDCRRY | < -0.25 |
| DASFSESLSRVSLQ | < -0.25 |
| DASHVHSAHPGT | < -0.25 |
| DASPVRGRMARGP | < -0.25 |
| DASPYK | -0.233 |

| Substance | growth estimate |
| --- | --- |
| DCA | < -0.25 |
| DCAP | < -0.25 |
| DCCLDWVIVRNSNRGRQSKF | < -0.25 |
| DCEGKYSMGSLDLSGQLRVR | < -0.25 |
| DCFLYQGQGPEHTVDIAPRA | < -0.25 |
| DCIRVRVTKAERKLRGSALS | < -0.25 |
| DCNSRRQFSALVD | < -0.25 |
| DCNYRLYPTCGY | < -0.25 |
| DCQRSPLGPVTWVGLTVDVR | < -0.25 |
| DCRFARDSLIRLDEKEWEKC | < -0.25 |
| DCRNNCCGGRMLVMLCARDL | < -0.25 |
| DCTEKPQTVRGHHMYSSTLV | < -0.25 |
| DCVLSRLKLGNLVRVLSIVP | < -0.25 |
| DDGPH | < -0.25 |
| DDGRFLMDSPAVA | < -0.25 |
| DDHHCVMTTPI | < -0.25 |
| DDKGPTIHVSSAISLNIR | < -0.25 |
| DDMGEPDQAVLRPS | < -0.25 |
| DDMRSGGGVLLG | < -0.25 |
| DDRW | < -0.25 |
| DDSCNASR | < -0.25 |
| DDTHLGEIGRTPSVH | < -0.25 |
| DDTLYLLVSFPRHRTICNRG | < -0.25 |
| DDTNEA | < -0.25 |

| Substance | growth estimate |
| --- | --- |
| DDTV | < -0.25 |
| DDYAIFTSVPRTRPAVFE | < -0.25 |
| DEAGRPNVNSEAQFCSEGCQ | < -0.25 |
| DEFVIFIYVVASNNSAEVPT | < -0.25 |
| DEFYTLRRRFSRPPLFLSVQ | < -0.25 |
| DEGLVCDGVLERRIRYYSPV | < -0.25 |
| DELARRLCTCLPGNSHPSSA | < -0.25 |
| DEMSRLRNANRISPAMHQTV | < -0.25 |
| DEQ | < -0.25 |
| DEQGLKHVVLRQTLSEYCGI | < -0.25 |
| DERI | < -0.25 |
| DERSIGGTIQPQLSLLNGG | < -0.25 |
| DESASRRRTTPCRVLETEHG | < -0.25 |
| DESLRIVAGRSLAGAICATT | < -0.25 |
| DESQKSHGRGGCPNLWVLLI | < -0.25 |
| DESRPR | < -0.25 |
| DETADSGRRCGPLVRSISRH | < -0.25 |
| DETP | < -0.25 |
| DETQTDARRTCPW | < -0.25 |
| DFDYKGGPRFLDGEYSARAA | < -0.25 |
| DFFGTSSFAAYSDMPTLLVS | < -0.25 |
| DFLWNAVRASGSI | -0.245 |
| DFTSFKGSVIRVILGQKVRG | < -0.25 |
| DFVHGLPVPRILSSLANCSA | < -0.25 |

| Substance | growth estimate |
| --- | --- |
| DFWAS | < -0.25 |
| DGAAGIDWLREYAERITEAG | < -0.25 |
| DGAGK | < -0.25 |
| DGAY | < -0.25 |
| DGDGRAPVILLSR | < -0.25 |
| DGGCPIVSPAP | < -0.25 |
| DGGDRCLVRRQLSFLMLGVQ | < -0.25 |
| DGGKVRPSPPAPPTSASLSR | < -0.25 |
| DGGSSFLESRYENWCGNRWS | 76.5 |
| DGIADVTHETWVQLARRMG | < -0.25 |
| DGICAITRGALKLR | < -0.25 |
| DGLGDPAATC | < -0.25 |
| DGLGSGTQNSNEAPLESIWP | -0.236 |
| DGLILNVGVRITRNSPGDQI | < -0.25 |
| DGLLMRA | < -0.25 |
| DGLVNNMATGPCAPLEAL | < -0.25 |
| DGPASISPGVKLARGYKYSE | < -0.25 |
| DGPPQVAVEGAGGAM | < -0.25 |
| DGRNEFAQKGF | < -0.25 |
| DGSRVAFVGRSGDGRLVQLT | < -0.25 |
| DGSSYGD | < -0.25 |
| DGSVPKSQ | < -0.25 |
| DGTGGSNPGLTLYKKVYTST | < -0.25 |
| DGV | < -0.25 |

Given with tabs: entries from further up.
Substance	growth estimate
DAAA	< -0.25
DACDGQNPDGSSRSVRLVLS	< -0.25
DAD	< -0.25
DAGSQSDSPVPIGGYRPRDT	< -0.25
DASHVHSAHPGT	< -0.25
DASPVRGRMARGP	< -0.25
DASPYK	-0.233
DCEGKYSMGSLDLSGQLRVR	< -0.25
DCQRSPLGPVTWVGLTVDVR	< -0.25
DCRFARDSLIRLDEKEWEKC	< -0.25
DCTEKPQTVRGHHMYSSTLV	< -0.25
DDMRSGGGVLLG	< -0.25
DDRW	< -0.25
DDTNEA	< -0.25
DDYAIFTSVPRTRPAVFE	< -0.25
DEFYTLRRRFSRPPLFLSVQ	< -0.25
DEQGLKHVVLRQTLSEYCGI	< -0.25
DERI	< -0.25
DETQTDARRTCPW	< -0.25
DFDYKGGPRFLDGEYSARAA	< -0.25
DFFGTSSFAAYSDMPTLLVS	< -0.25
DFTSFKGSVIRVILGQKVRG	< -0.25
DGLLMRA	< -0.25

An excerpt of these results, with bars between the fields.
Substance | growth estimate
DGSVPKSQ | < -0.25
DGTGGSNPGLTLYKKVYTST | < -0.25

— the supplement of paper PMC5949888
